For this experiment, the target named is Flag-Pol ι-Δ3 (UniProt Q9UNA4). Put plainly: co-IP; HEK293T cells co-transfected with Flag-Pol ι (WT or deletion mutants), Myc-USP7 and HA-HIF-1α; M-PER lysis buffer; anti-Flag, anti-Myc and anti-HA agarose beads; western blot. (In western blotting, separated proteins are transferred to a membrane and probed.)

Sequences of proteins named here, by UniProt entry; tags and fusion partners are left off. A change or cut given only in a name is not applied to a line headed by its entry.
UniProt Q9UNA4: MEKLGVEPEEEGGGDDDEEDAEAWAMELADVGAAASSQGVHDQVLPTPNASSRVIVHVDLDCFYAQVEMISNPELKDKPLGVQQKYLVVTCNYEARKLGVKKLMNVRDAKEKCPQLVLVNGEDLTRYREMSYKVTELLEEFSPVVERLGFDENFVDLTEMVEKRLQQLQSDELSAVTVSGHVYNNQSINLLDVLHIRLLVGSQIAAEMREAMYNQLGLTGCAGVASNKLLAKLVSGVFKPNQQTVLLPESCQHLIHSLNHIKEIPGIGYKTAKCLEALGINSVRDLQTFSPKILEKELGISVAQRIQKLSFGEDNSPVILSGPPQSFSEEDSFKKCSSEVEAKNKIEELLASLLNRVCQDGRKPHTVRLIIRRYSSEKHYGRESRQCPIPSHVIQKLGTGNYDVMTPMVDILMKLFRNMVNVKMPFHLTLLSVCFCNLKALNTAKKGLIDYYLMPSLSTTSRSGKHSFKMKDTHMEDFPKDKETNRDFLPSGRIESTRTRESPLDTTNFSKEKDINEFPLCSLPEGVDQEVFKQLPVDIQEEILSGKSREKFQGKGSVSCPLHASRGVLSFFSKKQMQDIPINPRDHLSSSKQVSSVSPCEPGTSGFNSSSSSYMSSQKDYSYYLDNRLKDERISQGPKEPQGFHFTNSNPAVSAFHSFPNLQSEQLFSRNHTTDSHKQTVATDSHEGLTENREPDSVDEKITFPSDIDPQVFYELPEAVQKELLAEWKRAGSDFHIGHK
UniProt Q16665: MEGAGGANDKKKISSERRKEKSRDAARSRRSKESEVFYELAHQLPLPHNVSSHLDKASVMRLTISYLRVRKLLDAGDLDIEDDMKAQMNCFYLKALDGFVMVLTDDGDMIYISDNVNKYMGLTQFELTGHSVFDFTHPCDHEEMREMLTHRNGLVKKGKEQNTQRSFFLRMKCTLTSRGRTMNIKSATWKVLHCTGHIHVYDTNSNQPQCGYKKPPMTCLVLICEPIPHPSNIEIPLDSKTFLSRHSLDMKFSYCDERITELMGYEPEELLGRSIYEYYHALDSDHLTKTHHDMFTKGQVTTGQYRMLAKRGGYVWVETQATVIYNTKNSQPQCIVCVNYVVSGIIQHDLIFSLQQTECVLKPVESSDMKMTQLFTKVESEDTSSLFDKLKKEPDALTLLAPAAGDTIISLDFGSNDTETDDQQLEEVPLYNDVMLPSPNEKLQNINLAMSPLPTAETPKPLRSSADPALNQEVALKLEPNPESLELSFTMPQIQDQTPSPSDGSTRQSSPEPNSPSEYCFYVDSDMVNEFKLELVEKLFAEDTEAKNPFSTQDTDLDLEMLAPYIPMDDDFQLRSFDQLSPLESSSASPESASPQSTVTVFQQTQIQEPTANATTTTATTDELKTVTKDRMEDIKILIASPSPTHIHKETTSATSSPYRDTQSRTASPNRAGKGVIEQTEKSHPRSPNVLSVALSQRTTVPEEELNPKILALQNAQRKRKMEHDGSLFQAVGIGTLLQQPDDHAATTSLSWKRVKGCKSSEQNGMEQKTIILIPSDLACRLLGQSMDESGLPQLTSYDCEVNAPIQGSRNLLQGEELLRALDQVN
UniProt Q93009: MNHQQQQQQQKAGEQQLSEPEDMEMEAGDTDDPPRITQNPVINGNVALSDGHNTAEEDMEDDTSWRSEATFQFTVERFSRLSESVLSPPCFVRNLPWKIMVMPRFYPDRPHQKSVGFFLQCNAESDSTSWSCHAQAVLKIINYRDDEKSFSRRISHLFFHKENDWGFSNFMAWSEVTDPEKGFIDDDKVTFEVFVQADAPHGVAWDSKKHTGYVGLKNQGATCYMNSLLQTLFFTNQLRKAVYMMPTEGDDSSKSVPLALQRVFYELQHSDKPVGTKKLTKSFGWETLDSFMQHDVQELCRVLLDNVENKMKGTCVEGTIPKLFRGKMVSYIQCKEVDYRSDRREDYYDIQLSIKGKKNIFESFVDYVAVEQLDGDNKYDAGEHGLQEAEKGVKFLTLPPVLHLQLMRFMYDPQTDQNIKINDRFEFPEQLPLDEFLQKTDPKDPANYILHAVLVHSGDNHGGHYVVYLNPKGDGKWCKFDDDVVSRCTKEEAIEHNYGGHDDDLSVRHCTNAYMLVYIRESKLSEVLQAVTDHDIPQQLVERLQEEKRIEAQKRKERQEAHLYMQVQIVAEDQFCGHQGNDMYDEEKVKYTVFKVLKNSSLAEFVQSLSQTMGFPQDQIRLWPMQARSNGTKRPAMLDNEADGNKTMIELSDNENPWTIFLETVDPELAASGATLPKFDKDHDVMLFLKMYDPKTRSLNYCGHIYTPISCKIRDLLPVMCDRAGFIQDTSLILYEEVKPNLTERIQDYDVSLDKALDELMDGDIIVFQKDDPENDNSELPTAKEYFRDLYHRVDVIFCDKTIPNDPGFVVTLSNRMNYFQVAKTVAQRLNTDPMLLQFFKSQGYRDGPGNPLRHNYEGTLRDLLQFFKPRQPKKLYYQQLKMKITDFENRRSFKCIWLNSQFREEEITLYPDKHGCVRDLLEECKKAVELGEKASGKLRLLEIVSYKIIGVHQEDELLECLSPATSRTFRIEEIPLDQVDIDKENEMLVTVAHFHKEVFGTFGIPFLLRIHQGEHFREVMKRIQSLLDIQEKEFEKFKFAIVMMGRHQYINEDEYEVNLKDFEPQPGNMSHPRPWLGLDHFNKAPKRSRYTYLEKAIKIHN

We go through two substances from article PMC10894303.

These are yes or no findings as the source states them, for the method shown. In cells and extracts the contact can be indirect. Binding calls can cover weak binding; strength is not graded here.

For HA-HIF-1α (from UniProt Q16665 1-826), the binding entry is “binds”.

As for “Myc-USP7 (from UniProt Q93009 1-1102) (enzyme)”, the binding result is listed as “binds”.
